In this experiment the target is HA-UPF1 (UniProt Q92900). Kind of experiment: co-IP; co-IP of LIN28A with HA-UPF1, with or without GST-MYC-UPF1 as competitor (Supplementary Fig. 1f).

Sequences of proteins named here, by UniProt entry; tags and fusion partners are left off. A change or cut given only in a name is not applied to a line headed by its entry.
UniProt Q92900: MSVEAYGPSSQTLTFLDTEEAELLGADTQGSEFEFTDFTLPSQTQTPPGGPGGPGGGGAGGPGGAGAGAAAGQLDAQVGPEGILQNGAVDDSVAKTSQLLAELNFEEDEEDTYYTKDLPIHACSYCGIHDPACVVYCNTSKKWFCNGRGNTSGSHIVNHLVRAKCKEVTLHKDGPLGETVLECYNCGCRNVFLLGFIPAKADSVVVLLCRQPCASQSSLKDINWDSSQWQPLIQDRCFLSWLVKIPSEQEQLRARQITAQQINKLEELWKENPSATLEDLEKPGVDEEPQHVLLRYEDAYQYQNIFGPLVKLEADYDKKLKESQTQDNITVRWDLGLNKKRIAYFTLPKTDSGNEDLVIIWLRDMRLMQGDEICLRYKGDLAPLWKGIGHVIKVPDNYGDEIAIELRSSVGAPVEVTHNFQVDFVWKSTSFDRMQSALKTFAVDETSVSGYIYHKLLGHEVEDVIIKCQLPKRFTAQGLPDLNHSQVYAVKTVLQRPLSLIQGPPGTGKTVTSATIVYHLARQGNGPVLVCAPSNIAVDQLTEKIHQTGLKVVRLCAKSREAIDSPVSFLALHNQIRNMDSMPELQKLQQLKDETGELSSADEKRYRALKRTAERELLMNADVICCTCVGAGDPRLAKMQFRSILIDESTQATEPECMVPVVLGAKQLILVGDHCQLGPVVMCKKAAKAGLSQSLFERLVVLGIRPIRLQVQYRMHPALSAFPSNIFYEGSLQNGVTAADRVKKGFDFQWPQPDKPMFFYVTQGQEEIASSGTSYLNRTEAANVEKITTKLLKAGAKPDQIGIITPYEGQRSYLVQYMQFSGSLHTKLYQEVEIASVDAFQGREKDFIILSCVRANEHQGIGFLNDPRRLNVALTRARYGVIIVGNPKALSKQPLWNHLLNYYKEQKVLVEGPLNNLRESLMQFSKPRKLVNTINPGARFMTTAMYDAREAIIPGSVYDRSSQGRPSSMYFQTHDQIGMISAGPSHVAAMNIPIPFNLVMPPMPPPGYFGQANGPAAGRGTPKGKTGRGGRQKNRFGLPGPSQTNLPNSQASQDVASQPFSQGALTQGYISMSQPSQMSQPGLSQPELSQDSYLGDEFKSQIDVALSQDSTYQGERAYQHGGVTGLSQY

Results are given in words; binding and its absence hold for the method and conditions named. Binding seen in cells or lysates may run through a third protein. A result given as binding can be weak or reduced; the word gives no strength. Where a sequence is shown, tags or fusion partners need not be part of it.

B1: FLAG-LIN28A (protein, UniProt Q9H9Z2 1-209)
chain: MGSVSNQQFAGGCAKAAEEAPEEAPEDAARAADEPQLLHGAGICKWFNVRMGFGFLSMTARAGVALDPPVDVFVHQSKLHMEGFRSLKEGEAVEFTFKKSAKGLESIRVTGPGGVFCIGSERRPKGKSMQKRRSKGDRCYNCGGLDHHAKECKLPPQPKKCHFCQSISHMVASCPLKAQQGPSAQGKPTYFREEEEEIHSPTLLPEAQN
Turning to B1, the binding result was “binds”.

Values taken from PMC10762078, “Role of UPF1-LIN28A interaction during early differentiation of pluripotent stem cells” (Nature Communications, 2024).
